For at least one compound, name, drawing or mass did not settle the structure.
How the values were obtained:
cancer cells = settings: literature reference (28); cited from earlier work
YAC-bearing strains = format: cell-based, S. cerevisiae; settings: YACs with human or mouse DNA inserts; FIG. 5B
Experimental: Strains (from the top): A11311, A16850, A17392, A17393, A17394, A13628, A17396, A17397, A16851.
The phenotypes shared by aneuploids might result from the mere presence of additional DNA or from the RNAs and proteins synthesized from these chromosomes. Thus, the effects of seven yeast artificial chromosomes (YACs) containing human or mouse DNA inserts ranging from approximately 350 kb to 1.6 MB in size were tested (Table 3).
The other phenotypes observed in aneuploids were not shared by the YAC-bearing strains. […] Progression through other cell cycle stages was not affected either as judged by DNA content analysis (FIGS. 5, C and D).

| Compound | proliferation of cancer cells and yeast cells carrying additional chromosomes (cancer cells) | sensitivity of YAC-bearing strains (YAC-bearing strains) |
| --- | --- | --- |
| COC1=C2C[C@@H](C)C[C@H](OC)[C@H](O)[C@@H](C)/C=C(\C)[C@H](OC(N)=O)[C@@H](OC)/C=C\C=C(/C)C(=O)NC(=CC1=O)C2=O [geldanamycin] | impaired | – |
| CO[C@H]1C[C@@H]2CC[C@@H](C)[C@@](O)(O2)C(=O)C(=O)N2CCCC[C@H]2C(=O)O[C@H]([C@H](C)C[C@@H]2CC[C@@H](O)[C@H](OC)C2)CC(=O)[C@H](C)/C=C(\C)[C@@H](O)[C@@H](OC)C(=O)[C@H](C)C[C@H](C)/C=C/C=C/C=C/1C [rapamycin] | – | did not exhibit increased sensitivity |
